# Experimental data from the supplement of paper PMC4604168 (melanoma cell lines).
# This is one part of the list. Many values rest on one well or one pass, so single values are uncertain.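 Cells were imaged in 1,536-well plates, and nuclei stained with an antibody against cleaved PARP were counted against all DNA-stained nuclei to give the apoptosis fraction. Screening doses were chosen to leave most cells alive, and resting and induced cleaved-PARP levels differ strongly between cell lines.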
# Columns and labels:
# Assay in all cases: cleaved PARP positive nuclei fraction relative to DMSO control; melanoma cells; higher = more apoptosis
# Conditions in all cases: library dose: low library concentration; 72 h
# [1] = tested on: CBRC034 (line from a melanoma biopsy)
# [2] = tested on: COLO792
# [3] = tested on: COLO800
# [4] = tested on: COLO829
# [5] = tested on: G361
# [6] = tested on: IPC-298
# [7] = tested on: IST-MEL1
# [8] = tested on: LB2518-MEL
# [9] = tested on: LOXIMVI
# [10] = tested on: MZ2-MEL
# [11] = tested on: MeWo
# [12] = tested on: RPMI7951
# [13] = tested on: RVH-421
# [14] = tested on: SkMel28
# [15] = tested on: SkMel30
# [16] = tested on: SkMel5
# [17] = tested on: UACC257
# [18] = tested on: UACC62
SMILES,cleaved PARP positive nuclei fraction [1] [%],cleaved PARP positive nuclei fraction [2] [%],cleaved PARP positive nuclei fraction [3] [%],cleaved PARP positive nuclei fraction [4] [%],cleaved PARP positive nuclei fraction [5] [%],cleaved PARP positive nuclei fraction [6] [%],cleaved PARP positive nuclei fraction [7] [%],cleaved PARP positive nuclei fraction [8] [%],cleaved PARP positive nuclei fraction [9] [%],cleaved PARP positive nuclei fraction [10] [%],cleaved PARP positive nuclei fraction [11] [%],cleaved PARP positive nuclei fraction [12] [%],cleaved PARP positive nuclei fraction [13] [%],cleaved PARP positive nuclei fraction [14] [%],cleaved PARP positive nuclei fraction [15] [%],cleaved PARP positive nuclei fraction [16] [%],cleaved PARP positive nuclei fraction [17] [%],cleaved PARP positive nuclei fraction [18] [%]
"C#Cc1cccc(Nc2ncnc3cc(OCCOC)c(OCCOC)cc23)c1 [erlotinib] + O=C(O)C(=O)Nc1sc2c(c1C(=O)O)CCNC2 [TCS401] (first compound 0.8 µM, partner dose 1.66667 µM)",353,64.6,101,189,34.5,373,268,164,53.2,215,51.1,176,61.4,165,28.7,64.1,166,55.2
"NC(=O)Nc1cc(-c2cccc(F)c2)sc1C(=O)N[C@H]1CCCNC1 + COc1ccc(-c2ccc3c(N4CCOCC4)nc(N4C[C@@H](C)O[C@@H](C)C4)nc3n2)cc1CO [KU0063794] (first compound 0.02 µM, partner dose 0.02 µM)",42,145,85,111,58.6,45.3,41.1,72.8,66.5,91.5,73.1,199,45.5,110,108,104,149,171
"OCCn1cc(-c2cnc3nnn(Cc4ccc5ncccc5c4)c3n2)cn1 + CC(C)CCN1c2nc(Nc3cc(F)c(O)c(F)c3)ncc2N(C)C(=O)C1C [BID1870] (first compound 1 µM, partner dose 0.2 µM)",77.6,180,32.8,72.5,173,85.1,69.2,78.6,37.6,29.6,50.9,20.2,41.7,123,214,57.2,59.3,75.4
"Cn1c(Nc2ccc(C(F)(F)F)cc2)nc2cc(Oc3ccnc(-c4ncc(C(F)(F)F)[nH]4)c3)ccc21 + c1cc(-c2cnn3cc(-c4ccc(OCCN5CCCCC5)cc4)cnc23)ccn1 [Dorsomorphin] (first compound 0.08 µM, partner dose 0.4 µM)",112,195,260,118,313,132,46.2,130,84,196,64.6,51,38,148,71.3,153,502,174
"COc1cc(Nc2ncc(F)c(Nc3ccc4c(n3)NC(=O)C(C)(C)O4)n2)cc(OC)c1OC [Tamatinib] + c1cc(-c2cnn3cc(-c4ccc(OCCN5CCCCC5)cc4)cnc23)ccn1 [Dorsomorphin] (first compound 0.4 µM, partner dose 0.4 µM)",132,244,39.6,108,128,154,95.2,99.9,92.8,186,117,92.5,87.7,116,91.9,65.7,286,60.9
"Cn1c(Nc2ccc(C(F)(F)F)cc2)nc2cc(Oc3ccnc(-c4ncc(C(F)(F)F)[nH]4)c3)ccc21 + COc1ccc(-c2ccc3c(N4CCOCC4)nc(N4C[C@@H](C)O[C@@H](C)C4)nc3n2)cc1CO [KU0063794] (first compound 0.08 µM, partner dose 0.02 µM)",94,286,39.1,137,223,135,42.2,309,108,267,75.9,70,105,193,54.2,53.6,636,122
"Cc1ccc(NC(=O)c2cccc(N(C)C)c2)cc1NC(=O)c1ccc(O)cc1 + COC(=O)c1sccc1S(=O)(=O)Nc1ccc(Nc2ccccc2)cc1OC [GSK0660] (first compound 2 µM, partner dose 1 µM)",108,73.5,109,99.3,107,71.9,479,100,114,82.3,73.6,95.5,118,105,209,76.2,49.9,162
"Cn1cncc1[C@@](N)(c1ccc(Cl)cc1)c1ccc2c(c1)c(-c1cccc(Cl)c1)cc(=O)n2C [tipifarnib] + O=C(Nc1ccccc1)c1cc([N+](=O)[O-])ccc1Cl [GW9662] (first compound 0.01 µM, partner dose 2 µM)",48.8,122,85,127,91.8,408,84.6,248,78.8,18.9,258,182,197,85.8,130,52.8,107,91.6
"O=C(CCCCCCC(=O)Nc1ccccc1)NO [vorinostat] + Cc1cc([N+](=O)[O-])ccc1NS(=O)(=O)c1cc(Cl)ccc1Cl [FH535] (first compound 0.08 µM, partner dose 1 µM)",162,113,174,112,125,47.4,103,186,74.6,72.6,73.5,139,170,218,59.9,218,212,67.1
